Assay results from article doi:10.1101/2024.04.22.590536 (bioRxiv, 2024).
Results are given in words; binding and its absence hold for the method and conditions named. A result given as binding can be weak or reduced; the word gives no strength. Tags and fused reporters may be left off the sequences shown.

T1: Enp2 fused to the GAL4 DNA binding domain (S. cerevisiae) (UniProt P48234)
T1 sequence: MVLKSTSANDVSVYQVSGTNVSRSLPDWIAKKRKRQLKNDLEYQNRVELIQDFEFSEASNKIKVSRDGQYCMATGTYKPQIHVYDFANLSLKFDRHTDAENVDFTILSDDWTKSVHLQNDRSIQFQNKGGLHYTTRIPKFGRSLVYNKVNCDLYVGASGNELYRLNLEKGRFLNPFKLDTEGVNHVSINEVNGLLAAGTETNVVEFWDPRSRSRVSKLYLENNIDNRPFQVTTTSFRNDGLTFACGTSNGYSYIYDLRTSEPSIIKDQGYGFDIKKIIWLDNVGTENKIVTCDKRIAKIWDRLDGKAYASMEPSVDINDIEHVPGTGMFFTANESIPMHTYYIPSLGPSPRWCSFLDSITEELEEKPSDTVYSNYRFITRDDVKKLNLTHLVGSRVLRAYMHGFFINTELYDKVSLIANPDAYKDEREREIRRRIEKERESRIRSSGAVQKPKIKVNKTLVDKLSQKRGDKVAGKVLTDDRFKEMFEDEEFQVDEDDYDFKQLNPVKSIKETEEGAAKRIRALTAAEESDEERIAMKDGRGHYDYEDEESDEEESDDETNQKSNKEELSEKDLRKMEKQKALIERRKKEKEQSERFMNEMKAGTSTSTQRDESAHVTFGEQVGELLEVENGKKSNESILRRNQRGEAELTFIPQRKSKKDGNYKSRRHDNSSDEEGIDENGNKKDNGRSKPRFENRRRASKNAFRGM


Columns and labels:
[1] = molecular target: T1, Enp2 fused to the GAL4 DNA binding domain (S. cerevisiae); experiment: two-hybrid
[2] = molecular target: ifh-7 fused to the GAL4 DNA binding domain (S. cerevisiae); experiment: two-hybrid

binding [1] | binding [2] | Molecule
binds | – | stm1ΔC fused to the GAL4 activation domain (S. cerevisiae) (domain or fragment)
– | binds | Stm1 fused to the GAL4 activation domain (protein, UniProt P39015 1-273) MSNPFDLLGNDVEDADVVVLPPKEIVKSNTSSKKADVPPPSADPSKARKNRPRPSGNEGAIRDKTAGRRNNRSKDVTDSATTKKSNTRRATDRHSRTGKTDTKKKVNQGWGDDKKELSAEKEAQADAAAEIAEDAAEAEDAGKPKTAQLSLQDYLNQQANNQFNKVPEAKKVELDAERIETAEKEAYVPATKVKNVKSKQLKTKEYLEFDATFVESNTRKNFGDRNNNSRNNFNNRRGGRGARKGNNTANATNSANTVQKNRNIDVSNLPSLA
